Some peptides are written in HELM: one residue between dots, names in brackets for other building blocks, links after the first $.
Assay: general procedure: Fmoc solid-phase peptide synthesis
Conditions: whole synthesis

## PEPTIDE1{Y.[PEG2].[dF].Q.W.A.V.G.H.[Sta].L.[am]}$$$$V2.0
280 nm
  final purity (method not given): over 95%
Based on the initial loading of the resin
  isolated yield: 6.0%
